Data from article PMC5105168.
These are yes or no findings as the source states them, for the method shown. Binding seen in cells or lysates may run through a third protein. Some results given as binding are weak or reduced against the parent protein; the word gives no strength.

Sequences of proteins named here, by UniProt entry; tags and fusion partners are left off. A change or cut given only in a name is not applied to a line headed by its entry. A line that says so, or that is headed by a name, gives the form on record, which may keep a tag or linker. Residues count along the entry.
UniProt O43823: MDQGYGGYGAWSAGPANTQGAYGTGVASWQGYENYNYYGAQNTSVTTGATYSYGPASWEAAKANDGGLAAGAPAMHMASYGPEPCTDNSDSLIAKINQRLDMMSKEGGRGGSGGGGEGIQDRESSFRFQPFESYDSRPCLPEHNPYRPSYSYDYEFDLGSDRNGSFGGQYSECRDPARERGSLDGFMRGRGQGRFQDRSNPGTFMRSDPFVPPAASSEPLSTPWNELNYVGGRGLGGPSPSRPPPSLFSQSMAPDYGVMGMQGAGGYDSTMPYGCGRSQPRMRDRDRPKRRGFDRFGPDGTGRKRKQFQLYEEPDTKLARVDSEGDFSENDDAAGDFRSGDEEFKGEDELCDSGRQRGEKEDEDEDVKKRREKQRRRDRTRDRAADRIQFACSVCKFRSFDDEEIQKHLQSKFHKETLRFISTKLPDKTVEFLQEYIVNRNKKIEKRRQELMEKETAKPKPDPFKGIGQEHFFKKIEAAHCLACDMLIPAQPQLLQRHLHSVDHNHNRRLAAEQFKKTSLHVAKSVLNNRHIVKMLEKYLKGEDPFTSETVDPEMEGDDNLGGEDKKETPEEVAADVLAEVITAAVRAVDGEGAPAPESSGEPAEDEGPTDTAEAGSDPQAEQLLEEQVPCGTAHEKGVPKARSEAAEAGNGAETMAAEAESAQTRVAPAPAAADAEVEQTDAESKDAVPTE
FLAG-HA-tagged AKAP95 (1–340): residues 1-340 of O43823
FLAG-HA-tagged AKAP95 (1–210): residues 1-210 of O43823

Columns and labels:
[1] = target: MBP fused to AKAP95 wild type (human) (UniProt O43823); assay: pull-down; lysates of 293 cells expressing MBP or MBP fusions of AKAP95, precipitated by amylose beads, immunoblot for endogenous hnRNPs
[2] = target: FLAG-HA-tagged AKAP95 (1–210) (human) (UniProt O43823); assay: co-IP; FH-tagged AKAP95 constructs transfected into 293T cells, anti-FLAG M2 agarose, cell lysates in BC300, 0.1% NP40, immunoblot for endogenous hnRNPs
[3] = target: FLAG-HA-tagged AKAP95 (1–340) (human) (UniProt O43823); assay: as above

Measured: binding

B1: hnRNP M (endogenous) (protein, UniProt P52272 1-730)
chain: MAAGVEAAAEVAATEIKMEEESGAPGVPSGNGAPGPKGEGERPAQNEKRKEKNIKRGGNRFEPYANPTKRYRAFITNIPFDVKWQSLKDLVKEKVGEVTYVELLMDAEGKSRGCAVVEFKMEESMKKAAEVLNKHSLSGRPLKVKEDPDGEHARRAMQKVMATTGGMGMGPGGPGMITIPPSILNNPNIPNEIIHALQAGRLGSTVFVANLDYKVGWKKLKEVFSMAGVVVRADILEDKDGKSRGIGTVTFEQSIEAVQAISMFNGQLLFDRPMHVKMDERALPKGDFFPPERPQQLPHGLGGIGMGLGPGGQPIDANHLNKGIGMGNIGPAGMGMEGIGFGINKMGGMEGPFGGGMENMGRFGSGMNMGRINEILSNALKRGEIIAKQGGGGGGGSVPGIERMGPGIDRLGGAGMERMGAGLGHGMDRVGSEIERMGLVMDRMGSVERMGSGIERMGPLGLDHMASSIERMGQTMERIGSGVERMGAGMGFGLERMAAPIDRVGQTIERMGSGVERMGPAIERMGLSMERMVPAGMGAGLERMGPVMDRMATGLERMGANNLERMGLERMGANSLERMGLERMGANSLERMGPAMGPALGAGIERMGLAMGGGGGASFDRAIEMERGNFGGSFAGSFGGAGGHAPGVARKACQIFVRNLPFDFTWKMLKDKFNECGHVLYADIKMENGKSKGCGVVKFESPEVAERACRMMNGMKLSGREIDVRIDRNA
binds: all assays above
